Values of other authors in patent publication US20080226685A1, “Product and Method for Controlling Flying Insects” (Reckitt Benckiser (Australia) Pty Limited, priority 2003, published 2008).
At least one compound was matched to its structure with a doubt left.

Details: 25° C.; cited from earlier work

For CC=CC1C(C(=O)OCc2c(F)c(F)c(COC)c(F)c2F)C1(C)C (racemic) [metofluthrin, 2,3,5,6-tetrafluoro-4-(methoxymethyl)benzyl-(EZ)-(1RS,3RS;1RS,3SR)-2,2-dimethyl-3-(prop-1-enyl)cyclopropanecarboxylate], which “vapour pressure (volatility at ambient temperature)” value is on record?
Its value is 1.4×10−5 mmHg.
